This passage reports Inhibition results from ChEMBL document CHEMBL4296182, “CO-ADD screening of NIH NCI Diversity Set V”.

Molecules are shown by their SMILES. The list shows a part of the results. Potency and affinity values are given separately.

In this test the test system is Pseudomonas aeruginosa. The note with it: Concentration 20 uM; ASSAY_TEST Inhibition of Bacterial Growth; detection method Absorption (OD600); MEDIA CAMHB; plate type 384well; NBS; CORNING #3640; time 18 hr.
By Inhibition is commonly meant the drop in the measured response relative to a control, in per cent. `O=C(O)/C=C/C(=O)Nc1cccc2cccnc12`: the Inhibition is reported as 12.48%. The value for `Cc1c(C(C)(C(=O)O)c2c(C)n(C)c3ccccc23)c2ccccc2n1C` was 6.07%; that for `O=C(NN1CCCCC1)NN1CCCCC1` was 1.63%. The value for `Cc1cc(C)c2c(SC(C)C)nc(N)nc2n1` was -3.21%; that for `CC1=C2C3OC(=O)C(C)C3CCC2(C)C=C(Cl)C1=O` (stereo unspecified) was -6.7%.

Take `Cn1ncc2c(Nc3cccc(Cl)c3)nc(Nc3cccc(Cl)c3)nc21`: the Inhibition was 20.54%. The value for `O=C(O)CCC1(c2ccccc2)NC(=O)NC1=O` (stereo unspecified) was 8.96%; that for `O=C(c1ccccc1)C1N=NCC1c1ccc(Cl)cc1` (stereo unspecified) was 10.37%. The value for `CC(=O)OCCn1c([N+](=O)[O-])cnc1/C=[N+](\[O-])C1CCCCC1` was 9.15%; that for `CCCCCCCCCCC(C(=O)O)C1(C(=O)O)CCC(=O)O1` (stereo unspecified) was 14.81%. As for `O=C1NCN(CCO)CN1`, the Inhibition is 14.64%. The value for `Cc1csc(NC(=O)c2ccc(C(=O)Nc3nc(C)cs3)cc2)n1` was 19.87%; that for `O=C(O)/C=C\c1cc2c(cc1[N+](=O)[O-])OCO2` was 9.65%; that for `C/C(=N\NC(N)=O)c1ccc(Cl)c(-n2cccc2)c1` was 11.76%. For the compound `CC(=O)/C=C(\C)Nc1ccccc1O`, the Inhibition came to 19.73%. The figure for `NC(=O)c1nc2c([nH]c1=O)CCCC2` is 17.77%. The figure for `CC1(C)CCCC2(C)C(OCCO)=CC(=O)C=C12` (stereo unspecified) is 4.75%; for `COc1ccccc1N1C(=O)CC(Sc2ccccc2N)C1=O` (stereo unspecified) it is 28.07%.

As to `Sc1ncnc2c1cnn2-c1ccccc1`, the Inhibition was found to be 10.77%. The figure for `O=C1OCC/C1=C\c1ccc2c(c1)OCO2` is 15.83%. As to `COCC(O)Cn1ccnc1[N+](=O)[O-]` (stereo unspecified) [MISONIDAZOLE], the Inhibition was found to be 4.11%. The value for `CC1CC=C(O)C12OCC(C)(C)CO2` (stereo unspecified) was 11.01%; that for `O=C(Nc1ccc(NC(=O)c2ccncc2)cc1)c1ccncc1` was 20.31%; that for `CCOc1ccc(NC(=S)NC(=O)c2ccco2)cc1` was 8.77%. The figure for `Oc1nc2[nH]c(Cl)nc(Cl)c-2n1` is 19.66%.

Consider `O=C(Nc1ccc(Cl)c(Cl)c1)c1ccc(Cl)c(Cl)c1`, for which the Inhibition turned out to be 18.88%. Take `CC1(C)CC[C@]2(C(=O)n3ccnc3)CC[C@]3(C)[C@H](C(=O)C=C4[C@@]5(C)C=C(C#N)C(=O)C(C)(C)[C@@H]5CC[C@]43C)[C@@H]2C1`: the Inhibition came out at 5.52%. As to `CCCCN1CCN=C1S`, the Inhibition came to 14.02%. As for `Cc1cc2cc3c(=O)[nH]c(=O)cc-3n(CC(O)C(O)C(O)CO)c2cc1C` (stereo unspecified), the Inhibition is given as 18.27%. The figure for `O=Cc1c[nH]c2ncccc12` is 11.42%; for `CCCCCc1cccnc1` it is 18.72%; for `COc1ccccc1NC(=O)c1cc2ccccc2cc1O` it is 14.46%. The figure for `Sc1ncnc2c1ncn2C1CCCC1` is 16.55%; for `CCOC(=O)c1[nH]c(C(=O)O)c(OC(=O)CC)c1C` it is 0.59%; for `Cc1ccc(/C=C2\CCOC2=O)cc1` it is 10.2%. Turning to `Nc1nc(=S)ss1`, the Inhibition stood at 5.6%. The value for `c1cncc(-c2nc3ccccc3s2)c1` was -23%; that for `N#Cc1ccc(NC2c3ccccc3CC2O)cc1` (stereo unspecified) was -23.24%; that for `Nc1ccc(C(=O)Oc2ccc([N+](=O)[O-])cc2)cc1` was 11.01%. The value for `Oc1ccc(Cl)nn1` was -2.21%; that for `CC(=O)NC1(C(=O)O)CCCC1` was 10.87%; that for `O=C(CSc1nc2ccc([N+](=O)[O-])cc2s1)c1ccc2ccccc2c1` was 19.2%.

Regarding `CN1C(=C=Cc2cc(I)c(O)c(I)c2)C(C)(C)c2ccccc21`, the Inhibition was 18.95%.

Regarding `O=C1Cc2cccc(O)c(=O)c2C(=O)O1`, the Inhibition was 8.55%.

On to `CCCN(CCC)c1ccc(/C=C/c2ccc3cc(OCC)ccc3n2)cc1`, for which the Inhibition is listed as 24.12%.

Consider `Cc1ccc2c(c1)C(=C(C#N)C#N)CCN2`, for which the Inhibition worked out at 12.59%. The value for `OCc1nnn(-c2ccccc2)c1CO` was 29.3%; that for `NNC(=O)c1nnsc1-c1csnn1` was -30.83%; that for `CCOC(=O)c1ccc(NC(=O)Oc2cc(C)c(Cl)cc2C(C)C)cc1` was 21.8%. On to `CCOCCc1c(O)nc(SC)nc1O`, for which the Inhibition came to 2.08%.

Consider `O=C(O)CCN1c2ccccc2Sc2ccccc21`, for which the Inhibition came out at 13.73%. In the case of `OCc1ncc(-c2ccccc2)s1`, the Inhibition is 5.14%. With `Cc1nc2c(O)cccc2cc1CO`, the Inhibition turned out to be 5.29%. The value for `O=[N+]([O-])c1ccc(-c2ncc(-c3ccc(Br)cc3)o2)cc1` was 16.39%; that for `Oc1nccc(SCc2ccc(Cl)cc2Cl)n1` was 4.81%. On to `CCOC(=O)c1nn(C)c2[nH]c(=O)n(C)c(=O)c12`, for which the Inhibition is on record as 4.41%.

As to `O=C1NC(=O)C2(CCc3ccccc32)N1` (stereo unspecified), the Inhibition was determined as 6.91%. The value for `O=C1NC(=O)C(Cc2ccccc2)(c2cccnc2)N1` (stereo unspecified) was 4.41%; that for `Nc1ccc(OC(=O)Nc2ccc(O)cc2)cc1` was -21.95%; that for `CC1=CC2(C)NC(=O)C(C)C12` (stereo unspecified) was 5.83%. The value for `Nc1c(Cl)ncnc1NCCO` was 6.69%; that for `CCc1nc(N)nc(N)c1-c1ccc(N(C)Cc2ccccc2)c([N+](=O)[O-])c1` was 4.08%; that for `CCOC(=O)c1c(C)oc(C)c(C(=O)OCC)c1=O` was -4.12%. On to `Cc1cc(-n2cnc3c(O)ncnc32)ccc1N`, for which the Inhibition amounted to 9.71%.

On to `Cc1cc(C)n(C(=N)NC(=O)c2ccc([N+](=O)[O-])cc2)n1`, for which the Inhibition is -2%. The value for `Cc1c(Cl)ccc2c(C(=O)O)cc(-c3ccccc3)nc12` was 4.75%; that for `O=C1OC(CN(Cc2ccccc2)Cc2ccccc2)CN1/N=C/c1ccc([N+](=O)[O-])o1` (stereo unspecified) was 17.78%. The figure for `NC(S)=Nc1cccc(Cl)c1` is -3.82%; for `CC(OC(=O)Nc1cccc(Cl)c1)C(=O)O` (stereo unspecified) it is 20.28%. Regarding `C=CCN=C(S)Nc1cccc([N+](=O)[O-])c1`, the Inhibition is on record as -12.2%. As to `CCCCNc1cc(Cl)nc(N)n1`, the Inhibition worked out at 5.98%.

`Clc1ccccc1-c1nc2ccccc2[nH]1`: the Inhibition is on record as 9.03%. The figure for `CCOC(=O)C(Cc1ccc(O)cc1)Nc1nc2ccccc2o1` (stereo unspecified) is 17.83%; for `O=C(O)c1cccc2c1C(=O)c1cccc3snc-2c13` it is -6.87%. The figure for `C#CC(C)OCC1CNC(=S)O1` (stereo unspecified) is 12.09%; for `CC1(CN2CCCC2)CCC(NC(=O)C(c2ccccc2)c2ccccc2)C(C)(C)O1` (stereo unspecified) it is 21.96%.
